Laboratory results taken from PMC10431718.
No constants are given. Whether binding was seen depends on the method and setting. Binding seen in cells or lysates may run through a third protein. Here binding means that the protein was enriched with, or labelled near, the bait; the list need not be complete. For some of these results: A no says only that the protein was not detected with the bait. Sequences can lack the tags named with a protein.

Amino acid sequences for entries named in this document (tags omitted).
UniProt P0DMV8: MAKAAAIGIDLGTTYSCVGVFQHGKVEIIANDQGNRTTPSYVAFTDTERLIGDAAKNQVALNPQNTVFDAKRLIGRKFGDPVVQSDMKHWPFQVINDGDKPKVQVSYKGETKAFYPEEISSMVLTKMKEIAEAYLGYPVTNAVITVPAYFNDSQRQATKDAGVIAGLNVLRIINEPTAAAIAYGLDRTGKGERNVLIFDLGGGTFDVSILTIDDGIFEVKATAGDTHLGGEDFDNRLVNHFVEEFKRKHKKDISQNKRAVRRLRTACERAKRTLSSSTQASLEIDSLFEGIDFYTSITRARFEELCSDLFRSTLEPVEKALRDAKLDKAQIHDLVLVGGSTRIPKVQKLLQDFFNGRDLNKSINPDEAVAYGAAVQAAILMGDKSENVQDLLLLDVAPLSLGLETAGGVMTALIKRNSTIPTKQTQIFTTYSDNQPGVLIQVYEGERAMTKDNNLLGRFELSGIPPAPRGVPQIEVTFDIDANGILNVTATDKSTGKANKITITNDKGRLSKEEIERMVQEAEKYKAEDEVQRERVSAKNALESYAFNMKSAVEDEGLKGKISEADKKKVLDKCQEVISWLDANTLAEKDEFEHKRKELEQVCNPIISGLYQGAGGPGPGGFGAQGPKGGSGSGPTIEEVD
UniProt P11142: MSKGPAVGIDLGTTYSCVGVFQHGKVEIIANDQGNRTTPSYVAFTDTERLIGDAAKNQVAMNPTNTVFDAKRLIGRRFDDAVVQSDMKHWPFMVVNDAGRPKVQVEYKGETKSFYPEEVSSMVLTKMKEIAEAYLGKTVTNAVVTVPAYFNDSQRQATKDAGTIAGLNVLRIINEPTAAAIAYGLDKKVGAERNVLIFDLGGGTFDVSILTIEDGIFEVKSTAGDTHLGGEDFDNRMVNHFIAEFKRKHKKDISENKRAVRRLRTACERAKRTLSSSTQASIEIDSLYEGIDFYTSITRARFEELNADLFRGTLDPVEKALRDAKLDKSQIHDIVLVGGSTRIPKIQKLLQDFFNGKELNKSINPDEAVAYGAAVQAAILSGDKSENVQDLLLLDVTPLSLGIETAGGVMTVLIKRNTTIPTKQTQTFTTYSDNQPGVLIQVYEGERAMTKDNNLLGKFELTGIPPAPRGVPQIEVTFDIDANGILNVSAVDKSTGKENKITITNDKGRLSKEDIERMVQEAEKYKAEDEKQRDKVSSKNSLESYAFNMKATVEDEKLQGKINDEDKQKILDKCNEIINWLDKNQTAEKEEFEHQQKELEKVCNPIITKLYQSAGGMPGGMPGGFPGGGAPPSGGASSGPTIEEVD
UniProt Q00610: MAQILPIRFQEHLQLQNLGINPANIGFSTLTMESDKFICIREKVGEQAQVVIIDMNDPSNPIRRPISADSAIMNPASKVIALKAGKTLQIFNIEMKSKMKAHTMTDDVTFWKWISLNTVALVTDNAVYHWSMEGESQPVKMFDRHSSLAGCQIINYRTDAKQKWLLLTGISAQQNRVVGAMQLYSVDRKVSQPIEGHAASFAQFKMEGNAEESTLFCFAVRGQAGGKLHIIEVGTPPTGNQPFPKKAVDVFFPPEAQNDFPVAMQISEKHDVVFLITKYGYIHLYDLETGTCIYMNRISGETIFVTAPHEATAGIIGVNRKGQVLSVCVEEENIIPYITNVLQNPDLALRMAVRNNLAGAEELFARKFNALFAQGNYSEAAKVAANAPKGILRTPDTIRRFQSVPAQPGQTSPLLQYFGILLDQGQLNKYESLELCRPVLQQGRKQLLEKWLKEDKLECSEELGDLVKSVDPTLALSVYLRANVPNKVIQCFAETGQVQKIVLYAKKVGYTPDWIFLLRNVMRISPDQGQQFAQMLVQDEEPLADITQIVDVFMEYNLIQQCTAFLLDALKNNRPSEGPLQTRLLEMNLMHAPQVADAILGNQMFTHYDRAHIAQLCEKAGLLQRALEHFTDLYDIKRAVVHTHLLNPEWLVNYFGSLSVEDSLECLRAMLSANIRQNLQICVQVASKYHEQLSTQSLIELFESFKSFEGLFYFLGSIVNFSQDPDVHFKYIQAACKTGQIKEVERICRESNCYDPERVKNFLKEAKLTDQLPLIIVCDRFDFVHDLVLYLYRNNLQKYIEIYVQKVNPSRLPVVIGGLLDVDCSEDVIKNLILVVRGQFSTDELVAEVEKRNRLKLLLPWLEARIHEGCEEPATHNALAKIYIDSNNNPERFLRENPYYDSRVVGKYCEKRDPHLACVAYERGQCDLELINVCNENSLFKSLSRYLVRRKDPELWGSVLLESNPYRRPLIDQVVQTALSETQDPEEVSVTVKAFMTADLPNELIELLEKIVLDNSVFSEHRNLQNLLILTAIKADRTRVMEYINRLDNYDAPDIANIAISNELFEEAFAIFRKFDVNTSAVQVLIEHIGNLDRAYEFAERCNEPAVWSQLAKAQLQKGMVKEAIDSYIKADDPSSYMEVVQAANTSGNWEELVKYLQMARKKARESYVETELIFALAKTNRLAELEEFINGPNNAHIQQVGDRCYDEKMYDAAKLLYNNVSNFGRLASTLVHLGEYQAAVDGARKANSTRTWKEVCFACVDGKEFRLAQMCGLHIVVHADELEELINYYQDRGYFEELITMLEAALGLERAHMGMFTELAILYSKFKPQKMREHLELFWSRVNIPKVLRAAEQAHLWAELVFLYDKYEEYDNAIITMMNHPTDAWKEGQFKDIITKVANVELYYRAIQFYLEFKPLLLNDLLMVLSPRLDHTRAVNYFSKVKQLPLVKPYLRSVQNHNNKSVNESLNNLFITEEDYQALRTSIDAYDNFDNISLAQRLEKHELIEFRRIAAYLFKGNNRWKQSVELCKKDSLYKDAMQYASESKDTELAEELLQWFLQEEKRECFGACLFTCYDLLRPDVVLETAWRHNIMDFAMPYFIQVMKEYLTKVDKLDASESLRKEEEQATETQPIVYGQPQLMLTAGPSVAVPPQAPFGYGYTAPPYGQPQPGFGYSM
UniProt O00410: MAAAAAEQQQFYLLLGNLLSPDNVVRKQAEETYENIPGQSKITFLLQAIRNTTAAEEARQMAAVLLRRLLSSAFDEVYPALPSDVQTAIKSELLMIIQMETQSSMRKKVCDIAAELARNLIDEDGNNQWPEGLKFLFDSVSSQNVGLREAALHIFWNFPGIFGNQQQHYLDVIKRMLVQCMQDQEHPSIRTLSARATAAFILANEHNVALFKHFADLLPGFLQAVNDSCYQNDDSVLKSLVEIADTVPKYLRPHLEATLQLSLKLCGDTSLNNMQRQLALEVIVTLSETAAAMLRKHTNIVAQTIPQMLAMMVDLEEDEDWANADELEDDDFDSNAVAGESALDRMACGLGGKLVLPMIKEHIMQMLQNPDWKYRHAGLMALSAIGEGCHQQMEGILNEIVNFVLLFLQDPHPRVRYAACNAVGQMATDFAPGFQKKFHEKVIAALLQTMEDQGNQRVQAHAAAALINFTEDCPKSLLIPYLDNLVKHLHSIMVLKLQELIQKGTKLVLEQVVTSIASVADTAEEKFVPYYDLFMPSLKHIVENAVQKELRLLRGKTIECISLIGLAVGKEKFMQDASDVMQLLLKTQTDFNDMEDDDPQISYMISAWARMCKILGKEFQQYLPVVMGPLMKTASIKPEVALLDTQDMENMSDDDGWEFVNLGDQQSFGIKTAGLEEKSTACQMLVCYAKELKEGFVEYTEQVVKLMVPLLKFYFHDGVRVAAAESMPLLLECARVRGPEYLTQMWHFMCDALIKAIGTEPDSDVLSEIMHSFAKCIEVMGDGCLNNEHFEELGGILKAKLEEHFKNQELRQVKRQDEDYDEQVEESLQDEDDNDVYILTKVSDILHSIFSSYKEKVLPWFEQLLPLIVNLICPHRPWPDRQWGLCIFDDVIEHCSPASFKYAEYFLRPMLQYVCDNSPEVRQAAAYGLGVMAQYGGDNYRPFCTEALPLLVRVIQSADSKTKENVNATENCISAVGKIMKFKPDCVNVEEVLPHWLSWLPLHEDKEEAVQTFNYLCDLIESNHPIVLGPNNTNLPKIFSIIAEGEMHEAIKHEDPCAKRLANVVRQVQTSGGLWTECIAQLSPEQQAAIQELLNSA
UniProt P35579: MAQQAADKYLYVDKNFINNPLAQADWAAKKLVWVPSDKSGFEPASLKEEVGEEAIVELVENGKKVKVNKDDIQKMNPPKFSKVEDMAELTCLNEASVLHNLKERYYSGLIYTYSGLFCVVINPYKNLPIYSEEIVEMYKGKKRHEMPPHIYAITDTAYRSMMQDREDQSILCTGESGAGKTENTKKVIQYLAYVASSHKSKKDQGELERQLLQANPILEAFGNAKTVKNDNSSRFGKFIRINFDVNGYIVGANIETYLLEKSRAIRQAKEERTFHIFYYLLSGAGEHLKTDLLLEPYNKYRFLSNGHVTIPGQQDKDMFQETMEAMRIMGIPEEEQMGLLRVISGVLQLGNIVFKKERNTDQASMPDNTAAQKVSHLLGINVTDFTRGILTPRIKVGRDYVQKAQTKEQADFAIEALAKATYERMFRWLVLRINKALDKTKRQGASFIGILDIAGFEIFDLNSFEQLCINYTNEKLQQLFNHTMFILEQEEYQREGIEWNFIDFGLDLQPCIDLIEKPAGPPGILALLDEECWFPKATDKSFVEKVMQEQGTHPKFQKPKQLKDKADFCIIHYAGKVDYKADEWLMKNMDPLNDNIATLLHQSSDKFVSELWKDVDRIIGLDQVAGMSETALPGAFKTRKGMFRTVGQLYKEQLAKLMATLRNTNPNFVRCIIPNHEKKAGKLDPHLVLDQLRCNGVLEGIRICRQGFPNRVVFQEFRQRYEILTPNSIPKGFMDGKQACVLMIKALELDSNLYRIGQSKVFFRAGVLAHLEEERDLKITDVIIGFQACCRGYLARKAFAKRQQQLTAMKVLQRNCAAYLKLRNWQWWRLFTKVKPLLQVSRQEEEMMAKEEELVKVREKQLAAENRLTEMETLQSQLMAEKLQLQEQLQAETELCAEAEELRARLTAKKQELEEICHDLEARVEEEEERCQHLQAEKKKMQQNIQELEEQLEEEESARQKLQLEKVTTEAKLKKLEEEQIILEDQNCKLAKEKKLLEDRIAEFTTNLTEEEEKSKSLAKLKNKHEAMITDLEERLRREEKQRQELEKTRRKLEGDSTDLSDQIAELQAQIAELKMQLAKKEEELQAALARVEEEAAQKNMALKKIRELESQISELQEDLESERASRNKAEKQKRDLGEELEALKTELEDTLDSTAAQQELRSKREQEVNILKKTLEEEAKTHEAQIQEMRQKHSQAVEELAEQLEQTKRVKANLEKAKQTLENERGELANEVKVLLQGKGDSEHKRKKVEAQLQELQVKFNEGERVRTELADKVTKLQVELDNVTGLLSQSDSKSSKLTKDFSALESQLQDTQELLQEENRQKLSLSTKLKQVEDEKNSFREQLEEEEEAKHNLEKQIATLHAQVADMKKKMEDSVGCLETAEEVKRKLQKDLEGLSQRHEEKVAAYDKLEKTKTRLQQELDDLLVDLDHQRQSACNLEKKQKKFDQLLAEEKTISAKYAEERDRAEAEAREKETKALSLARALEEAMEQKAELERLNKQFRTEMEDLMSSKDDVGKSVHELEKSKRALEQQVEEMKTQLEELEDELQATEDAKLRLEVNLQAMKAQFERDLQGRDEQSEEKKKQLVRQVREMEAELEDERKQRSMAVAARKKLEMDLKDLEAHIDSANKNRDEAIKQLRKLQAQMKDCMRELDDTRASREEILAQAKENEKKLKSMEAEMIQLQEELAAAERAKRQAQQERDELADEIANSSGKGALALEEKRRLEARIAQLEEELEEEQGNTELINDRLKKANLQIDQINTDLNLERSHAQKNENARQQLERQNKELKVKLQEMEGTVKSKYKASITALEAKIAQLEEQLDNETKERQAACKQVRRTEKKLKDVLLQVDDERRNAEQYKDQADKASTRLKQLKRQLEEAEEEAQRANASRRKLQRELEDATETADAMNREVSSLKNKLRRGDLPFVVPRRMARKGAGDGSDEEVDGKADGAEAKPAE
UniProt P68363: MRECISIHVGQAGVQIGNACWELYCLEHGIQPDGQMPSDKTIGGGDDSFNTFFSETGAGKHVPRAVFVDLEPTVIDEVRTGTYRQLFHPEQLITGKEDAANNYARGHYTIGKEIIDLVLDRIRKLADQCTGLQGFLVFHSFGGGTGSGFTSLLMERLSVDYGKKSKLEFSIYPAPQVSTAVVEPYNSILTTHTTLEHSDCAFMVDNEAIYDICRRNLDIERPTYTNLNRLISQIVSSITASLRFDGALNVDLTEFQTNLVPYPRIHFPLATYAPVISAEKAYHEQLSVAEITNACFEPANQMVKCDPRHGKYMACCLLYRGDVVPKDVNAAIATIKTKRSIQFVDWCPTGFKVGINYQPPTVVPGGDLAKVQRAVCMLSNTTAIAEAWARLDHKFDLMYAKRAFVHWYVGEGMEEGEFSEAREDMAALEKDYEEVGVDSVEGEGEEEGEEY

Columns and labels:
[1] = target: T1, hemagglutinin (HA)-tagged NEK1 (NIMA-related kinase 1) (human) (UniProt Q96PY6); assay: affinity purification with mass spectrometry; HA-NEK1 expressed in HEK293FT cells; cells cross-linked with the reversible crosslinker DSP (1 mM, 30 min, room temperature) before lysis; immunoprecipitation with anti-HA on Protein A Dynabeads, IgG control; LC-MS/MS; six independent biological replicates
T1 sequence: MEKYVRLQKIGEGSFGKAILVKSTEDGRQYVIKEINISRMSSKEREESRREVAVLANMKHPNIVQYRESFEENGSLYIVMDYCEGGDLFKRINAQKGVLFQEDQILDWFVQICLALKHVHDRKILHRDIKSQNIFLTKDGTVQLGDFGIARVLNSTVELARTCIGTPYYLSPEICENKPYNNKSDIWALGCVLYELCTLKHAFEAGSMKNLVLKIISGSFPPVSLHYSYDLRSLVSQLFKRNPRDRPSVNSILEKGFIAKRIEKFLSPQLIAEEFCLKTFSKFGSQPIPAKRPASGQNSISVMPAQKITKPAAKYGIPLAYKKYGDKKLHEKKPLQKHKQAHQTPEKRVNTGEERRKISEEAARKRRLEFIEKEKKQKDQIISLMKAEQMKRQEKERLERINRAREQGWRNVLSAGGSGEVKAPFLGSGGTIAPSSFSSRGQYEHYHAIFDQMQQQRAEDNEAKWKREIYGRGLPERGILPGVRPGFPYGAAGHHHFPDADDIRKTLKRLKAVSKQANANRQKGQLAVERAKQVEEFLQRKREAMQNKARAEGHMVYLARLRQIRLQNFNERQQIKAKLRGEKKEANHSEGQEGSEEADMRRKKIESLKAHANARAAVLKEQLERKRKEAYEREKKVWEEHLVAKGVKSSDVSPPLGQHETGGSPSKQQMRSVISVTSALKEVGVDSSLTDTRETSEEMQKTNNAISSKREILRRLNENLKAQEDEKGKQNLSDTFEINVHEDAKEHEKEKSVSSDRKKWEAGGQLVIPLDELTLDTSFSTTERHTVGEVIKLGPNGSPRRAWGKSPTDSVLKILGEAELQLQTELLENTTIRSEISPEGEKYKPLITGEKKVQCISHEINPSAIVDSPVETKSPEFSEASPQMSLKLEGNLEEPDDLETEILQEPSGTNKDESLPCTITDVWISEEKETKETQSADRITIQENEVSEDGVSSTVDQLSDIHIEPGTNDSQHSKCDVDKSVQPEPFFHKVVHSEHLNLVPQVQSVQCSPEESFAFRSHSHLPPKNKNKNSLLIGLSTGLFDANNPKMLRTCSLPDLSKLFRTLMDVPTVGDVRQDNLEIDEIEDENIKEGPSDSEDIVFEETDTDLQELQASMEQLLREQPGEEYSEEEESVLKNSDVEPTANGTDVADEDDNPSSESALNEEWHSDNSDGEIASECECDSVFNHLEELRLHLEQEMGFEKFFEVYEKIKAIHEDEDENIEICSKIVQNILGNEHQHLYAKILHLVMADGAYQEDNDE

[2] = target: T2, hemagglutinin (HA)-tagged NEK1 (NIMA-related kinase 1) (human), Q96PY6; assay: as above; settings: remark: other sources report otherwise
T2 chain: T1 sequence

Which binding [1] does the source give for HSP90AB1 (from UniProt P08238 1-724) here?
The binding was “binds”.

How did the binding [1] turn out when HSPA1A (from UniProt P0DMV8 1-641) was run?
The binding was “binds”.

Which binding [1] does the source give for HSPA8 (from UniProt P11142 1-646) here?
Its binding is “binds”.

For “clathrin heavy chain 1 (CLTC) (from UniProt Q00610 1-1675)”, which binding [1] is on record?
Its binding is “binds”.

How did the binding [1] turn out when “elongation factor 1-α (EF1a) (human (endogenous in HEK293FT))” was run?
The binding was “binds”.

Which binding [1] does the source give for “importin-5 (IPO5) (from UniProt O00410 1-1097)” here?
The binding was “binds”.

How did the binding [1] turn out when “importin-β1 (KPNB1), endogenous in HEK293FT cells (from UniProt Q14974 1-876)” was run?
The binding was “binds”.

“myosin 9 (MYH9) (from UniProt P35579 1-1960)” was tested. Which binding [1] did it give?
The binding was “binds”.

How did the binding [1] turn out when “α-tubulin (TUBA1B) (from UniProt P68363 1-451)” was run?
The binding was “binds”.

B1: C21ORF2, O43822 1-256 (protein)
chain: MKLTRKMVLTRAKASELHSVRKLNCWGSRLTDISICQEMPSLEVITLSVNSISTLEPVSRCQRLSELYLRRNRIPSLAELFYLKGLPRLRVLWLAENPCCGTSPHRYRMTVLRTLPRLQKLDNQAVTEEELSRALSEGEEITAAPEREGTGHGGPKLCCTLSSLSSAAETGRDPLDSEEEATSGAQDERGLKPPSRGQFPSLSARDASSSHRGRNVLTAILLLLRELDAEGLEAVQQTVGSRLQALRGEEVQEHAE
For B1, which binding [2] is on record?
Its binding is “no binding”.
